# Source: PubChem BioAssay AID652243 (Drosophila RNAi Screening Center, 2013)
# Screen: 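Fly genes required for human androgen receptor driven transcription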 (primary screen)
# Cell system: Drosophila S2R+ cells
# Knock-down reagent: long dsRNA against Drosophila genes
# Duration: 72 h (48 h, then 24 h hormone)
# Challenge: synthetic androgen R1881 at 10 nM for 24 h
# Measured: 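Firefly light from an androgen-responsive reporter and Renilla control light per well, raw and unnormalised, for each of two replicates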
# Direction: firefly reporter light: higher = more light from androgen-responsive reporter; Renilla control light: higher = more constitutive control signal (cell number, transfection)
# Rule for the call: 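Across duplicate plates, a knock-down whose log firefly/Renilla ratio shifted a set fold down or up from the GFP/LacZ control mean was a hit; the downward cut appears as both 1.5 and 3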
# Calls: active = hit: reporter lowered or raised; inactive = no hit
# In all, the deposit lists about 24,000 reagents; shown is a random part of those that have a named target and a result. In the full data, 246 (1%) are marked active. 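Plates not normalised; calls are printed but the firefly/Renilla ratio behind them is not deposited; fold cut for lowering reported inconsistently.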 The raw values are shown without normalisation. Names joined by + are all predicted targets of the reagent. Reagent sequences are not shown. Not stated in the record: the amount of reagent.
gene knocked down,dsRNA,"firefly reporter light, replicate 1","firefly reporter light, replicate 2","Renilla control light, replicate 1","Renilla control light, replicate 2",Call
CG11456,DRSC11665,32448,25605,3.33e5,2.80e5,inactive
CG10953,DRSC28267,3.06e5,5.77e5,1.03e6,1.55e6,inactive
Ppn (Papilin),DRSC15328,2.13e5,1.37e5,2.44e6,2.85e6,inactive
Ppn (Papilin),DRSC27718,4.15e5,4.19e5,6.52e5,6.56e5,inactive
Rcd6 (Reduction in Cnn dots 6),DRSC06054,7.17e5,3.42e5,1.54e6,8.58e5,inactive
Rcd6 (Reduction in Cnn dots 6),DRSC27115,3.99e5,3.07e5,4.85e5,3.82e5,inactive
Cyp6v1 (Cytochrome P450 6v1),DRSC20565,2.53e5,1.43e5,7.31e5,4.84e5,inactive
Cyp6v1 (Cytochrome P450 6v1),DRSC29247,6.39e5,6.26e5,1.23e6,1.30e6,inactive
CG31948,DRSC00740,79972,45903,6.94e5,5.24e5,inactive
CG4714,DRSC06883,7.20e5,6.85e5,1.87e6,2.06e6,inactive
CG14893,DRSC15015,1.93e5,1.79e5,3.57e6,2.89e6,inactive
TfIIEbeta (Transcription factor IIEbeta),DRSC08701,1.21e5,1.38e5,1.65e6,1.75e6,inactive
CG7483,DRSC16249,68211,98979,1.67e6,1.25e6,inactive
CG7483,DRSC22432,2.52e5,6.34e5,2.36e5,4.33e5,inactive
CG7483,DRSC26402,2.83e5,2.64e5,5.00e5,5.03e5,inactive
CG30091,DRSC21809,5.40e5,4.75e5,2.63e6,2.20e6,inactive
CG30091,DRSC27799,3.01e5,3.10e5,5.92e5,7.39e5,inactive
CG13868,DRSC06427,9.03e5,1.12e6,1.40e6,1.59e6,inactive
ACXB (Adenylyl cyclase X B),DRSC00845,1.42e5,1.39e5,1.13e6,1.37e6,inactive
ACXB (Adenylyl cyclase X B),DRSC26343,3.51e5,3.69e5,6.18e5,6.21e5,inactive
dy (dusky),DRSC20325,3.77e5,3.66e5,4.03e6,3.57e6,inactive
dy (dusky),DRSC25539,5.42e5,4.42e5,4.82e5,5.57e5,inactive
CG31626 + CG8677,DRSC21844,2.43e5,3.46e5,1.04e6,1.18e6,inactive
CG31626 + CG8677,DRSC25078,5.10e5,4.92e5,3.91e5,4.70e5,inactive
CG40249 (retired record),DRSC37861,4.72e5,4.87e5,1.40e6,1.49e6,inactive
CG5541,DRSC19946,84008,1.44e5,8.99e5,1.11e6,inactive
P5cr (Pyrroline 5-carboyxlate reductase),DRSC16782,1.80e5,1.72e5,2.47e6,2.75e6,inactive
Syt1 (Synaptotagmin 1),DRSC00156,2.60e5,98935,4.49e5,3.00e5,inactive
Syt1 (Synaptotagmin 1),DRSC00157,3.12e5,2.81e5,1.44e6,1.20e6,active
Syt1 (Synaptotagmin 1),DRSC00158,2.30e5,1.44e5,2.39e5,1.02e5,inactive
Syt1 (Synaptotagmin 1),DRSC00840,8.08e5,8.72e5,3.07e6,2.21e6,inactive
Syt1 (Synaptotagmin 1),DRSC22077,7.03e5,6.61e5,2.08e6,1.98e6,inactive
Syt1 (Synaptotagmin 1),DRSC27456,2.59e5,3.14e5,8.93e5,8.91e5,inactive
mthl7 (methuselah-like 7),DRSC10852,1.68e5,1.56e5,1.18e6,1.12e6,inactive
CG34461,DRSC10767,2.65e5,2.40e5,3.26e6,2.19e6,inactive
VhaAC45RP (VhaAC45-related protein),DRSC15423,5.55e5,5.79e5,3.38e6,4.41e6,inactive
VhaAC45RP (VhaAC45-related protein),DRSC26986,4.20e5,3.50e5,7.64e5,6.87e5,inactive
Ptp99A (Protein tyrosine phosphatase 99A),DRSC13939,1.75e6,7.96e5,4.72e6,2.04e6,inactive
Ptp99A (Protein tyrosine phosphatase 99A),DRSC14319,1.83e5,1.56e5,2.20e6,1.97e6,inactive
Ptp99A (Protein tyrosine phosphatase 99A),DRSC14320,2.30e5,2.53e5,2.29e6,2.77e6,inactive
Ptp99A (Protein tyrosine phosphatase 99A),DRSC16803,2.36e5,2.96e5,2.28e6,3.85e6,inactive
Ptp99A (Protein tyrosine phosphatase 99A),DRSC22125,6.09e5,4.93e5,2.15e6,1.70e6,inactive
Ptp99A (Protein tyrosine phosphatase 99A),DRSC22477,4.07e5,7.44e5,8.62e5,1.60e6,inactive
Ptp99A (Protein tyrosine phosphatase 99A),DRSC23033,8.31e5,9.79e5,1.74e6,1.90e6,inactive
Ptp99A (Protein tyrosine phosphatase 99A),DRSC37009,,,,,inactive

Part of the list above, set out differently.
Ptp99A (Protein tyrosine phosphatase 99A) [DRSC14319]
- firefly reporter light, replicate 1: 1.83e5
- firefly reporter light, replicate 2: 1.56e5
- Renilla control light, replicate 1: 2.20e6
- Renilla control light, replicate 2: 1.97e6
- Call: inactive

Ptp99A (Protein tyrosine phosphatase 99A) [DRSC14320]
- firefly reporter light, replicate 1: 2.30e5
- firefly reporter light, replicate 2: 2.53e5
- Renilla control light, replicate 1: 2.29e6
- Renilla control light, replicate 2: 2.77e6
- Call: inactive
